No constants are given. Whether binding was seen depends on the method and setting. Some entries that bind do so weakly or less than the wild type.
Legend:
[1] = target: T1, Regulator of ribonuclease activity A (RraA) (Escherichia coli) (UniProt P0A8R0); experiment: ITC; data not shown; RraA and RhlB CTE; both purified
T1 sequence: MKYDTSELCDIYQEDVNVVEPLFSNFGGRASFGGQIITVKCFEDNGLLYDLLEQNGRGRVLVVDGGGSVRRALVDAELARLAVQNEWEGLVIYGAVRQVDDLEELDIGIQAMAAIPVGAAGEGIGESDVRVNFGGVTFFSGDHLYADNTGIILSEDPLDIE

[2] = target: DEAD-box helicase RhlB (Escherichia coli) (UniProt P0A8J8); experiment: AUC; sedimentation velocity, absorbance at 280 nm, 20 °C; 150 mM NaCl, 50 mM HEPES pH 7.5, 10% glycerol; mixtures at 1:1 helicase:RraA trimer, about 10 μM; both purified
DEAD-box helicase DbpA = target: T2, DEAD-box helicase DbpA (Escherichia coli, UniProt P21693 1-457); experiment: as above
T2 construct: DbpA, DEAD-box RNA helicase, Escherichia coli; monomer of 49 kDa as printed; source: E. coli BL21(DE3), purified (ammonium sulfate precipitation, heparin column)
T2 sequence (looked up): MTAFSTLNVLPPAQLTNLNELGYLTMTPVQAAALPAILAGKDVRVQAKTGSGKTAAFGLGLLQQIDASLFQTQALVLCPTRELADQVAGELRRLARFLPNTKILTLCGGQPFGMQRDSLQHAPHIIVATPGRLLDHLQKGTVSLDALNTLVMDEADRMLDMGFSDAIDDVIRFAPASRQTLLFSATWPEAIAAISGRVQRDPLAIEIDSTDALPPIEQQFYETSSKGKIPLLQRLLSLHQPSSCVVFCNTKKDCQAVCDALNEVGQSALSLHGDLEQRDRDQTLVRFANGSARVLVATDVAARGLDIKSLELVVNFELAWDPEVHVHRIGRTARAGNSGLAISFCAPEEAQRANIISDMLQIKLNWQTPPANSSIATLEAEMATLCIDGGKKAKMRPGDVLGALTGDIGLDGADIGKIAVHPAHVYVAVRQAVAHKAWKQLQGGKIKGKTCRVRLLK

B1: RhlB(398-421) peptide (peptide)
peptide: YRLTRPRTGNGPRRTGAPRNRRRSG
B1 was tested. Which binding [1] did it give?
Its binding is “binds”.

B2: DEAD-box helicase RhlB (enzyme, Escherichia coli, UniProt P0A8J8 1-421, looked up)
chain: MSKTHLTEQKFSDFALHPKVVEALEKKGFHNCTPIQALALPLTLAGRDVAGQAQTGTGKTMAFLTSTFHYLLSHPAIADRKVNQPRALIMAPTRELAVQIHADAEPLAEATGLKLGLAYGGDGYDKQLKVLESGVDILIGTTGRLIDYAKQNHINLGAIQVVVLDEADRMYDLGFIKDIRWLFRRMPPANQRLNMLFSATLSYRVRELAFEQMNNAEYIEVEPEQKTGHRIKEELFYPSNEEKMRLLQTLIEEEWPDRAIIFANTKHRCEEIWGHLAADGHRVGLLTGDVAQKKRLRILDEFTRGDLDILVATDVAARGLHIPAVTHVFNYDLPDDCEDYVHRIGRTGRAGASGHSISLACEEYALNLPAIETYIGHSIPVSKYNPDALMTDLPKPLRLTRPRTGNGPRRTGAPRNRRRSG
notes: RhlB, DEAD-box RNA helicase, Escherichia coli; monomer of 47 kDa as printed; The printed mass of 47 kDa fits the whole protein; 'full-length RhlB' is said only of the crystallisation trials
B2 was tested. Which binding [2] did it give?
Its binding is “no binding (tested: ∼10 μM)”.

B3: DEAD-box helicase DbpA (enzyme, UniProt P21693 1-457)
chain: T2 sequence (looked up)
Which binding (DEAD-box helicase DbpA) does the source give for B3 here?
The binding was “no binding (tested: ∼10 μM)”.

Reference: paper PMC3814787, “Potential Regulatory Interactions of Escherichia coli RraA Protein with DEAD-box Helicases* ^([image sbox.jpg])” (The Journal of Biological Chemistry, 2013)
